Laboratory results: publication PMC7819943, “Rice protein-binding microarrays: a tool to detect cis-acting elements near promoter regions in rice”
This is one part of the list.

Target: T1, OsSMF1 (Oryza sativa, UniProt Q6ZLB0 1-436)
T1 sequence: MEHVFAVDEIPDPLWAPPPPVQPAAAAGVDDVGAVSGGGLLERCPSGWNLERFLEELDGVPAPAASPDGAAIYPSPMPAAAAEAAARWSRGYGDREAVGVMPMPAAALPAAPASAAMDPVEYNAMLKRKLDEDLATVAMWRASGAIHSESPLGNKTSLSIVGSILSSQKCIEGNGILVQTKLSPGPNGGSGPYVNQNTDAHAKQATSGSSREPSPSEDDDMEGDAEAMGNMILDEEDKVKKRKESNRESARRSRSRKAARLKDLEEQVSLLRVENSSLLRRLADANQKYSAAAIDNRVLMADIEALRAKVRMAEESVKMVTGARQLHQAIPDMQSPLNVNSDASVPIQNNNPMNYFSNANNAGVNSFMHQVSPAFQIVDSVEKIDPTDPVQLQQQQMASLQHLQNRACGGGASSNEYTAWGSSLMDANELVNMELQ
Experiment: protein-binding microarray (RPBM); PBS, 2% BSA, 51.3 ng/ul salmon testes DNA, 50 uM zinc acetate, 200 nM TF, 25 C, 1 h; high values mean tight binding
Settings: protein: recombinant; tags: N-terminal polyhistidine and DsRed monomer fusion (pET32a); chain copies: 2; label: CyDye5-dUTP incorporated in the synthesized complementary strand; 3' TTTTT single-stranded linker to array surface; dsDNA, one strand shown
How it was run: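 Binding signal is defined as the fluorescence intensity of each feature in arbitrary units, read on an Axon 4000B scanner. Transcription factors with N-terminal polyhistidine and DsRed fusions came from E. coli BL21-CodonPlus and were purified on Ni–NTA. They were incubated at 200 nM for 1 h at 25 °C on a custom Agilent array that had been made double-stranded with Cy5-dUTP, with 50 µM zinc acetate present, and the array was washed.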

Sequence	binding signal
AAGGCTCTTAGGTGCGGTGTGACAGTCCACCTGTAGAGTGCGGAGTCACCTAGTGCAG	3310 fluorescence intensity (a.u.)
GCTGGGTTTTCGAGGAGGCCTGACTGGATCATACTCGACTCGGAGTCACCTAGTGCAG	3250 fluorescence intensity (a.u.)
TAATAGATTTAATCATGTGCTGATGACATTATTATGATTCCGGAGTCACCTAGTGCAG	4280 fluorescence intensity (a.u.)
CATATATATCTGACTAAAACGGTATATGTTGCACGTAGTGCGGAGTCACCTAGTGCAG	3360 fluorescence intensity (a.u.)
CGTTCCACCGCCGCGCCTCTTCCCCGCCCCGATCGGCTGCCGGAGTCACCTAGTGCAG	3660 fluorescence intensity (a.u.)
TAGGAGTAACAAGCTAGAGCAAATGATTGCATCACATTGACGGAGTCACCTAGTGCAG	3200 fluorescence intensity (a.u.)
CTCCGCGTCTAGCCGCGGGTGACGTCAGCACCACCACCATCGGAGTCACCTAGTGCAG	17500 fluorescence intensity (a.u.)
GAAACCCTGTCACAAGCCGATGTGCACCATGTAAAGCCACCGGAGTCACCTAGTGCAG	11300 fluorescence intensity (a.u.)
GATTTGTGATGATTATTCGTGATTTGCGATAAATGGTCCCCGGAGTCACCTAGTGCAG	3380 fluorescence intensity (a.u.)
AATGGCAACGATAACAATAGTGCGCATCACGATAGGGGAGCGGAGTCACCTAGTGCAG	33500 fluorescence intensity (a.u.)
TTGTTCCATGTGTAGGTGACTCGATGTCTCGGGAGAGTATCGGAGTCACCTAGTGCAG	3230 fluorescence intensity (a.u.)
AAGTTGGGTTTCGGATCTTGGAAGGTTAGGAGATACAGTACGGAGTCACCTAGTGCAG	6930 fluorescence intensity (a.u.)
AATGGAGTTGCGGCGGCCGACGTCAAATCGAGTGGCGTAGCGGAGTCACCTAGTGCAG	3370 fluorescence intensity (a.u.)
GAAGCATCTCCCCACCTGTCAGTGATAGTATCCGTGTCCTCGGAGTCACCTAGTGCAG	3560 fluorescence intensity (a.u.)
GCTTTGGGCTATAATTGGGCCATTTGTCGTCAGCTCTTGGCGGAGTCACCTAGTGCAG	3230 fluorescence intensity (a.u.)
GTCGGAGATCATCGTCAGCGGTCAGCCTGCTGGCGCCGTGCGGAGTCACCTAGTGCAG	3970 fluorescence intensity (a.u.)
AGATAGTCCTACATGTCATCCTCACAAGTACTCCCTCCGTCGGAGTCACCTAGTGCAG	3650 fluorescence intensity (a.u.)
CAAATCACTCCACTCCTCCACTCATACACCACCACACTGCCGGAGTCACCTAGTGCAG	16700 fluorescence intensity (a.u.)
GAAGCATGCCAGATGATGTCATAAACCTGGGAGACACCACCGGAGTCACCTAGTGCAG	7870 fluorescence intensity (a.u.)
CCCGTCGTTGTCCACCCCGTCCCATTCCACGACCGTCGTCCGGAGTCACCTAGTGCAG	3390 fluorescence intensity (a.u.)
GGCCACGAATTACACCAAAATGAATACGTGGATGTAAATTCGGAGTCACCTAGTGCAG	3360 fluorescence intensity (a.u.)
AGAATAAAATTATATTTTGCCGTGTAATCCCAATTGCTAACGGAGTCACCTAGTGCAG	3270 fluorescence intensity (a.u.)
GGAGGAGTGGTCGCCGGGGATCATCGCGCGGCGTCACCGGCGGAGTCACCTAGTGCAG	3570 fluorescence intensity (a.u.)
ACTGGATCTGCCGTCACCAAGCCCCGCCGCCACGGTCGCCCGGAGTCACCTAGTGCAG	4280 fluorescence intensity (a.u.)
AAAGTCATGGGGCGAGAGCTGACTGTGCCGTGGGCTCCAGCGGAGTCACCTAGTGCAG	3650 fluorescence intensity (a.u.)
CCCCAATGCATTTCTCTCTCTACCTGCGTGTTTGACTGCACGGAGTCACCTAGTGCAG	3250 fluorescence intensity (a.u.)
GGTAGGGATGAGCTCGGCGGCGGCACGTGGCTGGGGTGCACGGAGTCACCTAGTGCAG	4410 fluorescence intensity (a.u.)

Given with each value named: entries from further up
GAAGCATGCCAGATGATGTCATAAACCTGGGAGACACCACCGGAGTCACCTAGTGCAG
  binding signal = 7870 fluorescence intensity (a.u.)
CCCGTCGTTGTCCACCCCGTCCCATTCCACGACCGTCGTCCGGAGTCACCTAGTGCAG
  binding signal = 3390 fluorescence intensity (a.u.)
GGCCACGAATTACACCAAAATGAATACGTGGATGTAAATTCGGAGTCACCTAGTGCAG
  binding signal = 3360 fluorescence intensity (a.u.)
AGAATAAAATTATATTTTGCCGTGTAATCCCAATTGCTAACGGAGTCACCTAGTGCAG
  binding signal = 3270 fluorescence intensity (a.u.)

Next entries follow.

Sequence	binding signal
TCTCATCCGTGACAGTTCGTAACTGTCACCCTTCATAGATCGGAGTCACCTAGTGCAG	3430 fluorescence intensity (a.u.)
TTGGGGTTAACCTGGTCTGAATCGGTGATGTGGGAGGGGACGGAGTCACCTAGTGCAG	3840 fluorescence intensity (a.u.)
CCGATGCTCGGTCAGCAAAACTGCTGATCCGTAAAATCACCGGAGTCACCTAGTGCAG	3250 fluorescence intensity (a.u.)
ACGGTGCGGTGACGCCGGTGGCCGGGTGGGTGCGGGATGCCGGAGTCACCTAGTGCAG	3270 fluorescence intensity (a.u.)
GGGTCATTTGTCCCTTTCTGGAATGAAGTGCTTTGTAAAACGGAGTCACCTAGTGCAG	33100 fluorescence intensity (a.u.)
CTCGCCGGCGCGGAGGTCCGCAGCCACACGTGGTGCCCGTCGGAGTCACCTAGTGCAG	4580 fluorescence intensity (a.u.)
GATAACAAACGCACGGTTCTCATCTTCCATCGTCACTCACCGGAGTCACCTAGTGCAG	4290 fluorescence intensity (a.u.)
CTAGCTACAGTCCCCGCTGCCACCTGTATGCCTACTACTTCGGAGTCACCTAGTGCAG	3890 fluorescence intensity (a.u.)
GGCGAGAGCAGCAACCACCGCCGATGTGGCGGGCGAGGCGCGGAGTCACCTAGTGCAG	4710 fluorescence intensity (a.u.)
TGTTTTGGAACTAAACAGGAGTGAGTGGGAATGTGACACCCGGAGTCACCTAGTGCAG	3280 fluorescence intensity (a.u.)
TTCAAAAGGTGCCATTGCTAGTCTCAATCTAGTCATTCGTCGGAGTCACCTAGTGCAG	3530 fluorescence intensity (a.u.)
AGGACCCGAGCTCGGCGGCGGCGGTGGCGTCAACGTCACACGGAGTCACCTAGTGCAG	3900 fluorescence intensity (a.u.)
TTTTCATTATGCTTTTGGTTTTATTGGTCAAGGGAATATCCGGAGTCACCTAGTGCAG	38600 fluorescence intensity (a.u.)
TTTAATAATAAAACGTGTCACAATAAAAGAAGTGATATTTCGGAGTCACCTAGTGCAG	4150 fluorescence intensity (a.u.)
CTCTGCCTCCCTCTCCCTCCCAAATCGCCGAGAAAAGAAGCGGAGTCACCTAGTGCAG	6670 fluorescence intensity (a.u.)
CCATTTCGTGCAAGCGAAGGCACCACCCGCCCTGACGCGGCGGAGTCACCTAGTGCAG	4450 fluorescence intensity (a.u.)
CAAGGCCCACTTAGCTGCTGACACATGGGCCCCGGCCCGCCGGAGTCACCTAGTGCAG	6160 fluorescence intensity (a.u.)
GATTCGCATTTCTTGTTGGAATCTGATTCGTATCCCTTCTCGGAGTCACCTAGTGCAG	3340 fluorescence intensity (a.u.)
CAATACACTGCGGACAACCAAGAATTGGCCGCCCAGTTCGCGGAGTCACCTAGTGCAG	38000 fluorescence intensity (a.u.)
CTGCTGCCAACCCATCCCCAACACGCAACATCTCTCTGCCCGGAGTCACCTAGTGCAG	4800 fluorescence intensity (a.u.)
TTGCCATGCATGTGATAAGCCTACATGTGGAGGAGTAGATCGGAGTCACCTAGTGCAG	3140 fluorescence intensity (a.u.)
AAGTACCTTGTACCTAGATTGGTCTGATACCTATAGGTACCGGAGTCACCTAGTGCAG	4620 fluorescence intensity (a.u.)
GAGGTAATTCCTCCTTTAATTTGTGTAAACAAATCTCAGCCGGAGTCACCTAGTGCAG	25600 fluorescence intensity (a.u.)
CCCTCCCTCCGCCTCCGCCCATCCAATTTCTTACCCCGTTCGGAGTCACCTAGTGCAG	3230 fluorescence intensity (a.u.)
ATAGGGGCACTTCTTATAACCTGGTGGCAGGTGTGGCTTGCGGAGTCACCTAGTGCAG	4490 fluorescence intensity (a.u.)
TCTCTCGTCGGCTCGTCGCCGGCGCGCCACCTCCGCCGCCCGGAGTCACCTAGTGCAG	3310 fluorescence intensity (a.u.)
AACAGTGAATCGTACACGTAGCTAGCAGCTAGCTATCTGCCGGAGTCACCTAGTGCAG	4790 fluorescence intensity (a.u.)
